Source: article PMC5740495
These are yes or no findings as the source states them, for the method shown. Binding seen in cells or lysates may run through a third protein. These calls come from enrichment with a bait or labelling near it, and not all partners need be listed.

Chains of the proteins cited; added tags and fusions are not shown.
UniProt O15371: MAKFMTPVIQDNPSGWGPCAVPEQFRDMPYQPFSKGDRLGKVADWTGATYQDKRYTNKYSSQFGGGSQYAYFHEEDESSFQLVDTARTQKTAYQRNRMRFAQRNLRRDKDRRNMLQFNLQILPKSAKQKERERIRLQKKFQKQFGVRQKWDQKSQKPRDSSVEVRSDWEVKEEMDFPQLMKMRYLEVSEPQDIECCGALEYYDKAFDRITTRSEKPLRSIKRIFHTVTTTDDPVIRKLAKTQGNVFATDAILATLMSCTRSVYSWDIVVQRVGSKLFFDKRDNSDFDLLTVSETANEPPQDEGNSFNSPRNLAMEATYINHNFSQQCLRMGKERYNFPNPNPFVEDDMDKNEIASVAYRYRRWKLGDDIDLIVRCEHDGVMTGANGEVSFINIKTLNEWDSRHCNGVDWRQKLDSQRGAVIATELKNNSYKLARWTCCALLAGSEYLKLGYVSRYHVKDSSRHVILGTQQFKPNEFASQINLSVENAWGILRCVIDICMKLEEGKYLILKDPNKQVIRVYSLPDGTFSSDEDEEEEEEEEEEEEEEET
UniProt P52294: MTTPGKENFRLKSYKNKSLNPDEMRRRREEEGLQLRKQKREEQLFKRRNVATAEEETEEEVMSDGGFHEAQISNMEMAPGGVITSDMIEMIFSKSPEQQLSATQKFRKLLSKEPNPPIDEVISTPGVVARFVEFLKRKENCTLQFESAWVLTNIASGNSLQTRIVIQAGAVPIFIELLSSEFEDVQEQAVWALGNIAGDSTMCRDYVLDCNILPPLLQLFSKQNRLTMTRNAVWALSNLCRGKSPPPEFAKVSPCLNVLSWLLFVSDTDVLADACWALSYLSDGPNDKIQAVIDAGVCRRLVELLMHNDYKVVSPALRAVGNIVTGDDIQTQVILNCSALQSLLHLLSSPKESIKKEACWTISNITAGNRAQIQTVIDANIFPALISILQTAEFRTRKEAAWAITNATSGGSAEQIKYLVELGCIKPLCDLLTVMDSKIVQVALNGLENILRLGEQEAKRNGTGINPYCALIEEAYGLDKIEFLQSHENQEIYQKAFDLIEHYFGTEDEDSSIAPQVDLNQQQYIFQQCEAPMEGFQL
UniProt O14980: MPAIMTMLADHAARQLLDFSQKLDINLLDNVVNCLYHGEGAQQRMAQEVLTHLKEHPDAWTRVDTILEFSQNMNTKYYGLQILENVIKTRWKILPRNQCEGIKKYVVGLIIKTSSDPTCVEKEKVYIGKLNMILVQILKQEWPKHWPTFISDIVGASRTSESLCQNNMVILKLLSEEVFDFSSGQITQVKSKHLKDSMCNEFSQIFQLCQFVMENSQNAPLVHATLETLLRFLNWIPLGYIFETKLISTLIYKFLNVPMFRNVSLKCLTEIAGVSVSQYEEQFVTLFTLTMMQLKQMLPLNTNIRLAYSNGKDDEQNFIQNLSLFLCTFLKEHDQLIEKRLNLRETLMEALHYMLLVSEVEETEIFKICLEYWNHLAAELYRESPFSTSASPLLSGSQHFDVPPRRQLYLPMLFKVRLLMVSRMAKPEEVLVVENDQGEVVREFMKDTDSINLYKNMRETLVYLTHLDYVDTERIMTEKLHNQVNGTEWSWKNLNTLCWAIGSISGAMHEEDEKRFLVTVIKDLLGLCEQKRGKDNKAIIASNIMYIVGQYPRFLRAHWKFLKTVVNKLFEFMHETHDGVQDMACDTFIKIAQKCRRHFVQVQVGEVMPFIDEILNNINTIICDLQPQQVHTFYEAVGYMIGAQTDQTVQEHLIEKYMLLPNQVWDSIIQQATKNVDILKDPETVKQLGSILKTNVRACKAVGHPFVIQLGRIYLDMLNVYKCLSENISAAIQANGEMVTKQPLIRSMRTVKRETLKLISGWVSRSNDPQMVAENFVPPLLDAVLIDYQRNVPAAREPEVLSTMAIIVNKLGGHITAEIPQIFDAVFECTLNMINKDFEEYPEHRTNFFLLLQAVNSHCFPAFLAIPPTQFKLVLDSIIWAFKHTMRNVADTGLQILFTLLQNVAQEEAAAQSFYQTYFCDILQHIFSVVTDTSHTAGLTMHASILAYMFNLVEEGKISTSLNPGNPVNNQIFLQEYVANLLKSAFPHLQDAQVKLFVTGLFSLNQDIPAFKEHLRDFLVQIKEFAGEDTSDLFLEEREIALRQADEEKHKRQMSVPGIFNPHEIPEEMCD
UniProt O15131: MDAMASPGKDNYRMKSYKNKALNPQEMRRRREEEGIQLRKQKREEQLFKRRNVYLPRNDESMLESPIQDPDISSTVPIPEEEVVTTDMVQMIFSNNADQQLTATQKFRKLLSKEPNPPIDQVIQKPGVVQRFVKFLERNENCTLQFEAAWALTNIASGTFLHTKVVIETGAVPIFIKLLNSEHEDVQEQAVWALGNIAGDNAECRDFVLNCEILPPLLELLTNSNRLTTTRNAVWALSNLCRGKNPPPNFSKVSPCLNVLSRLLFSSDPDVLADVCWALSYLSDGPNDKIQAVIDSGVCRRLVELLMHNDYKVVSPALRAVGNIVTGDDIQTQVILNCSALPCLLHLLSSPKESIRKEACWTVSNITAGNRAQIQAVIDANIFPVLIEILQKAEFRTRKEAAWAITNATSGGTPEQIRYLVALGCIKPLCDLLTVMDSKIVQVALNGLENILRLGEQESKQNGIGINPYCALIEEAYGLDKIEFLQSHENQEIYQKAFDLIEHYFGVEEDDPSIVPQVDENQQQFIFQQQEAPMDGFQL
UniProt Q92973: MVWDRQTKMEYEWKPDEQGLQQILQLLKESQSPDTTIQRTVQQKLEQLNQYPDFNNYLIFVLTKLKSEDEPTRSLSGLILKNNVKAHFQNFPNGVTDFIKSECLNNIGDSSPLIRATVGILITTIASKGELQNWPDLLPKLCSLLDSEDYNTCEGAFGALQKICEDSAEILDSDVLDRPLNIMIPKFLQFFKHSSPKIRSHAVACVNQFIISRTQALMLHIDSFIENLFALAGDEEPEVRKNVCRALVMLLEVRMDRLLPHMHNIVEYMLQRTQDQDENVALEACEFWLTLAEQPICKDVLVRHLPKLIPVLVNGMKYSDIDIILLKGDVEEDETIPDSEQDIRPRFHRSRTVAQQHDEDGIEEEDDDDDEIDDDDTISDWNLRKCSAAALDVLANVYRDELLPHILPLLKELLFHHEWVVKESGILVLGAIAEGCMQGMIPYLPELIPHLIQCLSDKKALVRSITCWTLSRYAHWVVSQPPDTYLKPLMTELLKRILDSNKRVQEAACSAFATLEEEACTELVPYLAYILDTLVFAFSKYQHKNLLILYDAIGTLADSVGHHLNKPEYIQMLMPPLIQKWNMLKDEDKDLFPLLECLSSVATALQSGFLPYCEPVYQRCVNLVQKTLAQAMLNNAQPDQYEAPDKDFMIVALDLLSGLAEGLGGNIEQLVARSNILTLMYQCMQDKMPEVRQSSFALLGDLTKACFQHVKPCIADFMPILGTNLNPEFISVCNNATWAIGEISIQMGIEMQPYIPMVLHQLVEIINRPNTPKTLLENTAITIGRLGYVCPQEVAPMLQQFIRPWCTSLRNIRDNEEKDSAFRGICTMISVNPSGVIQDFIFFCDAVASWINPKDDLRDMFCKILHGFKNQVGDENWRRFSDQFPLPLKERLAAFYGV
UniProt P55060: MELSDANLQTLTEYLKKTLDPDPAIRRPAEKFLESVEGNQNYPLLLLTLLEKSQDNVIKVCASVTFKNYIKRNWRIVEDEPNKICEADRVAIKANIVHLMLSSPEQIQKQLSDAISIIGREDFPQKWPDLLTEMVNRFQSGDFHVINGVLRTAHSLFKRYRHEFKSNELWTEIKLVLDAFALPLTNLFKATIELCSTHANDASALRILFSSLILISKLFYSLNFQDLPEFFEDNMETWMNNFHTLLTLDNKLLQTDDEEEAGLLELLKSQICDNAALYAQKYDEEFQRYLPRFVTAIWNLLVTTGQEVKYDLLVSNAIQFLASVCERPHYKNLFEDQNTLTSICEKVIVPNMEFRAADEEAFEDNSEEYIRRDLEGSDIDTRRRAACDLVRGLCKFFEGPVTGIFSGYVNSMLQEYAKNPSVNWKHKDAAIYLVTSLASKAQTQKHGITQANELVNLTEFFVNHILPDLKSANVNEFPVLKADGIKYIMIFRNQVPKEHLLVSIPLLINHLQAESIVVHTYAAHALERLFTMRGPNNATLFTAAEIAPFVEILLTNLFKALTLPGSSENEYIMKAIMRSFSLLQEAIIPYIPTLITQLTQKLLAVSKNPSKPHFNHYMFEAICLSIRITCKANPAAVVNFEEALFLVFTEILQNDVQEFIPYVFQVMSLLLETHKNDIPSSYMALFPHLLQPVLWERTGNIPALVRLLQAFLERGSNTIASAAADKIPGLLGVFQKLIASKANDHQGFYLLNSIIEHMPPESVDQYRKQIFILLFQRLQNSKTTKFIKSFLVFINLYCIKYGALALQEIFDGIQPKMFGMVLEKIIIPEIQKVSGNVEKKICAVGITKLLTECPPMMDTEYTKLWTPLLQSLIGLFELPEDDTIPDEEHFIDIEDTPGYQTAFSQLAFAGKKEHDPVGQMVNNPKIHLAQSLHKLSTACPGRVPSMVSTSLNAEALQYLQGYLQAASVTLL
UniProt O15397: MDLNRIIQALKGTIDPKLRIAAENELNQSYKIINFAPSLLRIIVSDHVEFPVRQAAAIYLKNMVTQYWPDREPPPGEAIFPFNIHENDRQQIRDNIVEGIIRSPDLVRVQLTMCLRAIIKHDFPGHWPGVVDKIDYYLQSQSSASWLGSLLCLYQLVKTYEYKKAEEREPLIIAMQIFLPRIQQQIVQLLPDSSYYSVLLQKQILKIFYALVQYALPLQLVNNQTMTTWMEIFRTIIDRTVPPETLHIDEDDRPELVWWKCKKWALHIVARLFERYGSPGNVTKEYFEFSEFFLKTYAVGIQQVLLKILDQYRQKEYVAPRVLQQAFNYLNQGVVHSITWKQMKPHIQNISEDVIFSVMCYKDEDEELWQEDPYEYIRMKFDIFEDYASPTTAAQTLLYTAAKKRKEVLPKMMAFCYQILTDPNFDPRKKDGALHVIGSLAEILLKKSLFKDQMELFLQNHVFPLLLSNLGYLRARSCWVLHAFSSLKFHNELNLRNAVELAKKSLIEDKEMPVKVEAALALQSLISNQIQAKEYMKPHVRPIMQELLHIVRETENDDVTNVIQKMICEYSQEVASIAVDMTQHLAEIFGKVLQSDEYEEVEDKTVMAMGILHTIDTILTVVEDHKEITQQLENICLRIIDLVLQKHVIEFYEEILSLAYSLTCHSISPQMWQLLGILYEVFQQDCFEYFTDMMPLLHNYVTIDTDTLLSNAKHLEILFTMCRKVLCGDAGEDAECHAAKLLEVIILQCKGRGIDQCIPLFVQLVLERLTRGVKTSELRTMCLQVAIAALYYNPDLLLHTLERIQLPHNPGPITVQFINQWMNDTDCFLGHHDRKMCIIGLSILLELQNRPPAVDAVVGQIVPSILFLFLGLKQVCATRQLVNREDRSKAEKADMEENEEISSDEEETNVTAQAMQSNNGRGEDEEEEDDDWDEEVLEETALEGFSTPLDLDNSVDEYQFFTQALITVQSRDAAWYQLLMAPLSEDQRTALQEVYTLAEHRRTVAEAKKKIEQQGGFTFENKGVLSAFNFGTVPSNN

Columns and labels:
XPO7 (human) = molecular target: T1, XPO7 (human) (UniProt Q9UIA9); assay: proximity labelling; BioID, large-scale, direct identification of biotinylated peptides: same NTR-BirA* lines; biotinylated peptides eluted from streptavidin beads with 80% ACN, 20% TFA after the on-bead digest, MS
T1 sequence: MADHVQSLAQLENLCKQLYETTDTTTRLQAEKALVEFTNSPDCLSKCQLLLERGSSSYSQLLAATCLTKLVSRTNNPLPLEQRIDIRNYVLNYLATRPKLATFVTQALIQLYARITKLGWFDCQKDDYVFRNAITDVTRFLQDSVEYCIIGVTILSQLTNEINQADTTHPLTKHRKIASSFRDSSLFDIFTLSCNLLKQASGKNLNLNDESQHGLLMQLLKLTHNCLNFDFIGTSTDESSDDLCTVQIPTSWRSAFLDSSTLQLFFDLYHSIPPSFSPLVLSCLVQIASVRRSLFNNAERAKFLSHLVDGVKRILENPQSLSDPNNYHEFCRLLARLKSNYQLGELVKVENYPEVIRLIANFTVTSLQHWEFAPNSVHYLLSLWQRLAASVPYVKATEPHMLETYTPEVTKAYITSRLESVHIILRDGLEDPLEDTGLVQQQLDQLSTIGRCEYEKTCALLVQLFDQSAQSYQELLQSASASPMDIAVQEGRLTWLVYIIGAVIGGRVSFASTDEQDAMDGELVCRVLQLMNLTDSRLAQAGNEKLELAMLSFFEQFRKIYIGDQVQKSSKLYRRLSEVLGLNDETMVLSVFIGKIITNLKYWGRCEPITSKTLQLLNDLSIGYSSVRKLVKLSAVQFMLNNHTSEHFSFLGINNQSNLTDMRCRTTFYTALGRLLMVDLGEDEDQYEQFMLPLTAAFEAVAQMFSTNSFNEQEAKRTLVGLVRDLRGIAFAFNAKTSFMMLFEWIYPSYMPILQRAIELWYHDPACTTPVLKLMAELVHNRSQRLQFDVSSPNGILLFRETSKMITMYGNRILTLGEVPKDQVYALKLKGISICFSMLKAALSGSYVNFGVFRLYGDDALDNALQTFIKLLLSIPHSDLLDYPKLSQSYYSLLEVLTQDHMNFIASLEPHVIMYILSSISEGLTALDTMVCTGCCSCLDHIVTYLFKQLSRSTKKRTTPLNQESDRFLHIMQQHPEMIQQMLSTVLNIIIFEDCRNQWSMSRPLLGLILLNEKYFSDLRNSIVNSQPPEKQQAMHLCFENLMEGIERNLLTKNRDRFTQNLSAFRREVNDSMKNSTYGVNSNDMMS

[1] = molecular target: eukaryotic translation initiation factor 3 (subunit D, EIF3D) (human) (UniProt O15371); assay: proximity labelling; BioID, reciprocal: cargo fused to BirA*-FLAG (N- or C-terminal) in stable Flp-In T-REx 293 lines, four biological replicates; cargo interactomes compared pairwise, with BirA* alone and non-engineered cells
IMA5 (human) = IMA5 (human) (UniProt P52294); assay: proximity labelling; BioID, large-scale, direct identification of biotinylated peptides: same NTR-BirA* lines; biotinylated peptides eluted from streptavidin beads with 80% ACN, 20% TFA after the on-bead digest, MS
XPO1 (human) = XPO1 (human) (UniProt O14980); assay: as above
IMA6 (human) = IMA6 (human) (UniProt O15131); assay: as above
TNPO1 (human) = TNPO1 (human) (UniProt Q92973); assay: as above
XPO2 (human) = XPO2 (human) (UniProt P55060); assay: as above
TNPO2 (human) = molecular target: T2, TNPO2 (human) (UniProt O14787); assay: as above
T2 sequence: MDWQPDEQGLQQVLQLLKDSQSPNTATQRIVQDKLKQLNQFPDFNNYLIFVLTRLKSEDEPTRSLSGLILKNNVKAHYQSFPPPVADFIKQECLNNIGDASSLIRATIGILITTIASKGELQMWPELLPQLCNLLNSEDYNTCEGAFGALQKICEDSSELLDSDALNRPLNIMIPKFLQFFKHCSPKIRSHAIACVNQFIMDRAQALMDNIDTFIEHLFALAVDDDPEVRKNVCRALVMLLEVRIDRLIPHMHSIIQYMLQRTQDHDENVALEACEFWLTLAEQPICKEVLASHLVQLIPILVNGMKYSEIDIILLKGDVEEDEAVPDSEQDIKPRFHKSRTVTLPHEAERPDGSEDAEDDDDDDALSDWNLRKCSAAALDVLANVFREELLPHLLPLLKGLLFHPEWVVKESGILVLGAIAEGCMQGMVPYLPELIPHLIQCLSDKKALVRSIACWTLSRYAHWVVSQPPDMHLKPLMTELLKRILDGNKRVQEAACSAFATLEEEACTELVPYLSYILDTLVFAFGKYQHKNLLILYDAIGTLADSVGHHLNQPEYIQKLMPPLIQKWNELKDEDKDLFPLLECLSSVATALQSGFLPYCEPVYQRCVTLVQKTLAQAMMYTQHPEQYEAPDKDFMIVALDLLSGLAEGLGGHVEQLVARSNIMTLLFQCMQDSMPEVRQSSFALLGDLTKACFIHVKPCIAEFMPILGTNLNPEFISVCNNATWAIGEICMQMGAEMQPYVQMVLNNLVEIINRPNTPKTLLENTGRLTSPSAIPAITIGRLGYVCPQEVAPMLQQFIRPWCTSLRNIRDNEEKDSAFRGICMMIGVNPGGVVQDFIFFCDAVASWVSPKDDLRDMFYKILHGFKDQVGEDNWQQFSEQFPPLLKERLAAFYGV

CSN4 (from UniProt Q9BT78 1-406) was tested, and the binding (XPO7 (human)) was “binds”.

For IPO8 (from UniProt O15397 1-1037), the binding [1] was “binds”.

B1: EXOSC10 (protein, UniProt Q01780 1-885)
chain: MAPPSTREPRVLSATSATKSDGEMVLPGFPDADSFVKFALGSVVAVTKASGGLPQFGDEYDFYRSFPGFQAFCETQGDRLLQCMSRVMQYHGCRSNIKDRSKVTELEDKFDLLVDANDVILERVGILLDEASGVNKNQQPVLPAGLQVPKTVVSSWNRKAAEYGKKAKSETFRLLHAKNIIRPQLKFREKIDNSNTPFLPKIFIKPNAQKPLPQALSKERRERPQDRPEDLDVPPALADFIHQQRTQQVEQDMFAHPYQYELNHFTPADAVLQKPQPQLYRPIEETPCHFISSLDELVELNEKLLNCQEFAVDLEHHSYRSFLGLTCLMQISTRTEDFIIDTLELRSDMYILNESLTDPAIVKVFHGADSDIEWLQKDFGLYVVNMFDTHQAARLLNLGRHSLDHLLKLYCNVDSNKQYQLADWRIRPLPEEMLSYARDDTHYLLYIYDKMRLEMWERGNGQPVQLQVVWQRSRDICLKKFIKPIFTDESYLELYRKQKKHLNTQQLTAFQLLFAWRDKTARREDESYGYVLPNHMMLKIAEELPKEPQGIIACCNPVPPLVRQQINEMHLLIQQAREMPLLKSEVAAGVKKSGPLPSAERLENVLFGPHDCSHAPPDGYPIIPTSGSVPVQKQASLFPDEKEDNLLGTTCLIATAVITLFNEPSAEDSKKGPLTVAQKKAQNIMESFENPFRMFLPSLGHRAPVSQAAKFDPSTKIYEISNRWKLAQVQVQKDSKEAVKKKAAEQTAAREQAKEACKAAAEQAISVRQQVVLENAAKKRERATSDPRTTEQKQEKKRLKISKKPKDPEPPEKEFTPYDYSQSDFKAFAGNSKSKVSSQFDPNKQTPSGKKCIAAKKIKQSVGNKSMSFPTGKSDRGFRYNWPQR
B1 was tested, and the binding (IMA5 (human)) was “binds” and the binding (XPO1 (human)) was “binds”.

B2: NUP50 (protein, UniProt Q9UKX7 1-468)
chain: MAKRNAEKELTDRNWDQEDEAEEVGTFSMASEEVLKNRAIKKAKRRNVGFESDTGGAFKGFKGLVVPSGGGRFSGFGSGAGGKPLEGLSNGNNITSAPPFASAKAAADPKVAFGSLAANGPTTLVDKVSNPKTNGDSQQPSSSGLASSKACVGNAYHKQLAALNCSVRDWIVKHVNTNPLCDLTPIFKDYEKYLANIEQQHGNSGRNSESESNKVAAETQSPSLFGSTKLQQESTFLFHGNKTEDTPDKKMEVASEKKTDPSSLGATSASFNFGKKVDSSVLGSLSSVPLTGFSFSPGNSSLFGKDTTQSKPVSSPFPTKPLEGQAEGDSGECKGGDEEENDEPPKVVVTEVKEEDAFYSKKCKLFYKKDNEFKEKGIGTLHLKPTANQKTQLLVRADTNLGNILLNVLIPPNMPCTRTGKNNVLIVCVPNPPIDEKNATMPVTMLIRVKTSEDADELHKILLEKKDA
With B2 the binding (IMA6 (human)) was “binds”, the binding (TNPO1 (human)) was “binds” and the binding (XPO2 (human)) was “binds”. The binding (IMA5 (human)) was “binds” and the binding (TNPO2 (human)) was “binds”.
